Reference: article PMC8213057, “Targeting ALK2: An Open Science Approach to Developing Therapeutics for the Treatment of Diffuse Intrinsic Pontine Glioma” (Journal of Medicinal Chemistry, 2020)

Amino acid sequences for entries named in this document (tags omitted). A change or cut given only in a name is not applied to a line headed by its entry. Residues count along the entry.
UniProt P10721, 26-976: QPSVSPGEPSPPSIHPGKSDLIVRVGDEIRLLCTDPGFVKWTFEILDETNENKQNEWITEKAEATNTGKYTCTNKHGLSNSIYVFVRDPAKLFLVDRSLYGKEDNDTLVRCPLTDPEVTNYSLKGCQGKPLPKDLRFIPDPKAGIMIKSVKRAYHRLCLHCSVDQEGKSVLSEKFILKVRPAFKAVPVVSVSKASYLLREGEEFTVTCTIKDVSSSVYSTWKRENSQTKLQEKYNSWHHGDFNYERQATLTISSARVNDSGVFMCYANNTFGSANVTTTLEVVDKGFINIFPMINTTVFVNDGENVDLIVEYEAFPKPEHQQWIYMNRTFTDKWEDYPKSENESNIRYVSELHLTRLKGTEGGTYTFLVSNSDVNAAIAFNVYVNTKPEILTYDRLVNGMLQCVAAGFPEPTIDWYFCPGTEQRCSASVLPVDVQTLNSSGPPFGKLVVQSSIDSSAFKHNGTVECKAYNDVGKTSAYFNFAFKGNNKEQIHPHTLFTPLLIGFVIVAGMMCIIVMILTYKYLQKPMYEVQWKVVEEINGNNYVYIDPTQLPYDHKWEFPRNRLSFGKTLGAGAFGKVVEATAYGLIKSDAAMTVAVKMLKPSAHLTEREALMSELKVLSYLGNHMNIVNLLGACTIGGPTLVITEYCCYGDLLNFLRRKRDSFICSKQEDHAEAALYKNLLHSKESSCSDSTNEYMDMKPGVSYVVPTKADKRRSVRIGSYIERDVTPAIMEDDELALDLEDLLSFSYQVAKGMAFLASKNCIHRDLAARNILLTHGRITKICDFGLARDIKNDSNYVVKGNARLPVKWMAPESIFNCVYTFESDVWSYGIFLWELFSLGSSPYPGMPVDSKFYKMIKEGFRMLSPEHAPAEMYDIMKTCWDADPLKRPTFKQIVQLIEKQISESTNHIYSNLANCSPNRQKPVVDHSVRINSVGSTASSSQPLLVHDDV
UniProt Q8IW41: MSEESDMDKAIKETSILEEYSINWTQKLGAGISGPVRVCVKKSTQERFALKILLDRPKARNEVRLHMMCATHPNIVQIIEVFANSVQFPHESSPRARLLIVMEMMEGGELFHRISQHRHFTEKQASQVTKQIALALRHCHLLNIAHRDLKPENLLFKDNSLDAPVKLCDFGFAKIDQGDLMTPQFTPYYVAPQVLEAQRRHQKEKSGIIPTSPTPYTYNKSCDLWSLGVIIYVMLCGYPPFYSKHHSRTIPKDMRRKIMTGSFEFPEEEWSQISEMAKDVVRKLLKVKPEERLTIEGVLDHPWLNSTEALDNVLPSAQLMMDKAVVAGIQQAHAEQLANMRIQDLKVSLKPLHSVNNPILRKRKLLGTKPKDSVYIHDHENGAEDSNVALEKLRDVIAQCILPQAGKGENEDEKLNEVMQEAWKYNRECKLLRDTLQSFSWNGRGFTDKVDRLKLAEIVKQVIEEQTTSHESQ
UniProt Q9H1R3: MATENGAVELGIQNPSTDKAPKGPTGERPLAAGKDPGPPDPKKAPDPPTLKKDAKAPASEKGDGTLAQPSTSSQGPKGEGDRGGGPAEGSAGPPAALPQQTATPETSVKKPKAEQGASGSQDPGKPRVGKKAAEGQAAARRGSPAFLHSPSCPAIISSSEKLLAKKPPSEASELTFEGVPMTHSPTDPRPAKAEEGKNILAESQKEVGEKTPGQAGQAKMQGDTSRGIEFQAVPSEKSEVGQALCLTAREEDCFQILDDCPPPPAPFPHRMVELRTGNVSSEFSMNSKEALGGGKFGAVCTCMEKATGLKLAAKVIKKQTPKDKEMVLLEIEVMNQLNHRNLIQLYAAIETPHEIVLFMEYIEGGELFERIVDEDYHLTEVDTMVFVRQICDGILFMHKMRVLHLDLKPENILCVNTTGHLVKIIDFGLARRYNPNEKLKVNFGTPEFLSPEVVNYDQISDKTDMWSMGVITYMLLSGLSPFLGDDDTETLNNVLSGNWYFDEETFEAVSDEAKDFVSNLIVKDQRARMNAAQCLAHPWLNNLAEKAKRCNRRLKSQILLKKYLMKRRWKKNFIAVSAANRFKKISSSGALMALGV
UniProt Q9Y6E0: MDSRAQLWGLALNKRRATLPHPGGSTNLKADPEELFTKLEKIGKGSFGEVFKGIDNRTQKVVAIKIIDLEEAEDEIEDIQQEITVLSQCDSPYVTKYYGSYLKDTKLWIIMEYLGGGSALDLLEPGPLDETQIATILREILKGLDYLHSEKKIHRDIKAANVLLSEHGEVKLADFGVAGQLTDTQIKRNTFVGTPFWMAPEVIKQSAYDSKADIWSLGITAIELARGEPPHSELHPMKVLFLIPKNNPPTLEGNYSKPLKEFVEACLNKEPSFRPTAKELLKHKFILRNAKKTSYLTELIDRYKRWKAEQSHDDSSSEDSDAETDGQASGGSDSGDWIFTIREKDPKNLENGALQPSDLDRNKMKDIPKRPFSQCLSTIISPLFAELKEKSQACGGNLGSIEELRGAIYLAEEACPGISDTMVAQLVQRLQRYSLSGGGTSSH
UniProt Q9BXA6: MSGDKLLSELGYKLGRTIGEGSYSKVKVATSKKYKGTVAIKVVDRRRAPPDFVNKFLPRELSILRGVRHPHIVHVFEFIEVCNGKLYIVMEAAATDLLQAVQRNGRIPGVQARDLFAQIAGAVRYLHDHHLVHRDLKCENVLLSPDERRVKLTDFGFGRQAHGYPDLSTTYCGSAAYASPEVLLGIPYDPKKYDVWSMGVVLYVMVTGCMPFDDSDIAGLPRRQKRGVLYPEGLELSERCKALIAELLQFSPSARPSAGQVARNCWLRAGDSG
UniProt Q86UE8, whole entry: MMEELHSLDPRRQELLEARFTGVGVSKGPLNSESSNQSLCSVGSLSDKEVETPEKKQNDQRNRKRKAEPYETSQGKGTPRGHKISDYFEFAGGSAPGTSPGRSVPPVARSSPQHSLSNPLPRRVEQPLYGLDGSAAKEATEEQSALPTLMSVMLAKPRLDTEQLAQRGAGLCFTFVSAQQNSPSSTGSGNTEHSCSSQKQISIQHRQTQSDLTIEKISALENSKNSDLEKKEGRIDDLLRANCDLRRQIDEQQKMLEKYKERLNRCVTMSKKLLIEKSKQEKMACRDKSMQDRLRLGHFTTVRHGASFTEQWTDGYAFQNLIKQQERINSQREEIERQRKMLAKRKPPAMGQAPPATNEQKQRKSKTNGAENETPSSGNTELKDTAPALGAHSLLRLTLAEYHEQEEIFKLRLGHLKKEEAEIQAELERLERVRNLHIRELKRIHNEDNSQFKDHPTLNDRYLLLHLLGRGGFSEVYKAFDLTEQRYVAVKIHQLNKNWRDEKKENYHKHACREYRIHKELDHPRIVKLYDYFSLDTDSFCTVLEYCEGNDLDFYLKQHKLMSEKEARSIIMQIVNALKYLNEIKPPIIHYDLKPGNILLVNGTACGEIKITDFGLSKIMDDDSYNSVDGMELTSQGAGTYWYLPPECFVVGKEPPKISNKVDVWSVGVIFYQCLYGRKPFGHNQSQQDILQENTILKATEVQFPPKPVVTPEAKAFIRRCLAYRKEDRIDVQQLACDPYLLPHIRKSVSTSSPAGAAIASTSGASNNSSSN
UniProt Q00536: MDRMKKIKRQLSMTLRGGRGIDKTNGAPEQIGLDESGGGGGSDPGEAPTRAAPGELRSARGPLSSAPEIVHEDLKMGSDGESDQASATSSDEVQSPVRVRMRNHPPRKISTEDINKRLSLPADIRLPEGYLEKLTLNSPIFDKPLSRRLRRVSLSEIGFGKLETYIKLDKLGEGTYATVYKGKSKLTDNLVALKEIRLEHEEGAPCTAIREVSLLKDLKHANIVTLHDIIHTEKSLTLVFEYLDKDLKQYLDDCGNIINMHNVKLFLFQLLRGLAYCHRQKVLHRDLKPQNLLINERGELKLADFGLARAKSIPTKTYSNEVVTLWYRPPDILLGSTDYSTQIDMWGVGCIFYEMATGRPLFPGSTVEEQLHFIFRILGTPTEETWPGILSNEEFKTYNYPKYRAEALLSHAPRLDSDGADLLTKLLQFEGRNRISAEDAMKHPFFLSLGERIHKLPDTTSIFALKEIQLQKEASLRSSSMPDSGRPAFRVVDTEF
UniProt Q8IY84: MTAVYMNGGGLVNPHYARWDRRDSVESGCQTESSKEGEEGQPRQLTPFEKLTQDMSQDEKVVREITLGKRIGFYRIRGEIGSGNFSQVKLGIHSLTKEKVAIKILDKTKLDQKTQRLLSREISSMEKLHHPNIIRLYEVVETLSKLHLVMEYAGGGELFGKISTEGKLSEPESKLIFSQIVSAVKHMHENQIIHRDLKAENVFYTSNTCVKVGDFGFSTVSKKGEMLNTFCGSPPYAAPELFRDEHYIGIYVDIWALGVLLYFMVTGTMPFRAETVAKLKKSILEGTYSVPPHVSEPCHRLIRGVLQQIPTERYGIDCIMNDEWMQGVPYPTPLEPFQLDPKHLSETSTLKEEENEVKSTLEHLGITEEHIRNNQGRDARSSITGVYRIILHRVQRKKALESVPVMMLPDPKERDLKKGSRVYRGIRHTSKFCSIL
UniProt Q9H792: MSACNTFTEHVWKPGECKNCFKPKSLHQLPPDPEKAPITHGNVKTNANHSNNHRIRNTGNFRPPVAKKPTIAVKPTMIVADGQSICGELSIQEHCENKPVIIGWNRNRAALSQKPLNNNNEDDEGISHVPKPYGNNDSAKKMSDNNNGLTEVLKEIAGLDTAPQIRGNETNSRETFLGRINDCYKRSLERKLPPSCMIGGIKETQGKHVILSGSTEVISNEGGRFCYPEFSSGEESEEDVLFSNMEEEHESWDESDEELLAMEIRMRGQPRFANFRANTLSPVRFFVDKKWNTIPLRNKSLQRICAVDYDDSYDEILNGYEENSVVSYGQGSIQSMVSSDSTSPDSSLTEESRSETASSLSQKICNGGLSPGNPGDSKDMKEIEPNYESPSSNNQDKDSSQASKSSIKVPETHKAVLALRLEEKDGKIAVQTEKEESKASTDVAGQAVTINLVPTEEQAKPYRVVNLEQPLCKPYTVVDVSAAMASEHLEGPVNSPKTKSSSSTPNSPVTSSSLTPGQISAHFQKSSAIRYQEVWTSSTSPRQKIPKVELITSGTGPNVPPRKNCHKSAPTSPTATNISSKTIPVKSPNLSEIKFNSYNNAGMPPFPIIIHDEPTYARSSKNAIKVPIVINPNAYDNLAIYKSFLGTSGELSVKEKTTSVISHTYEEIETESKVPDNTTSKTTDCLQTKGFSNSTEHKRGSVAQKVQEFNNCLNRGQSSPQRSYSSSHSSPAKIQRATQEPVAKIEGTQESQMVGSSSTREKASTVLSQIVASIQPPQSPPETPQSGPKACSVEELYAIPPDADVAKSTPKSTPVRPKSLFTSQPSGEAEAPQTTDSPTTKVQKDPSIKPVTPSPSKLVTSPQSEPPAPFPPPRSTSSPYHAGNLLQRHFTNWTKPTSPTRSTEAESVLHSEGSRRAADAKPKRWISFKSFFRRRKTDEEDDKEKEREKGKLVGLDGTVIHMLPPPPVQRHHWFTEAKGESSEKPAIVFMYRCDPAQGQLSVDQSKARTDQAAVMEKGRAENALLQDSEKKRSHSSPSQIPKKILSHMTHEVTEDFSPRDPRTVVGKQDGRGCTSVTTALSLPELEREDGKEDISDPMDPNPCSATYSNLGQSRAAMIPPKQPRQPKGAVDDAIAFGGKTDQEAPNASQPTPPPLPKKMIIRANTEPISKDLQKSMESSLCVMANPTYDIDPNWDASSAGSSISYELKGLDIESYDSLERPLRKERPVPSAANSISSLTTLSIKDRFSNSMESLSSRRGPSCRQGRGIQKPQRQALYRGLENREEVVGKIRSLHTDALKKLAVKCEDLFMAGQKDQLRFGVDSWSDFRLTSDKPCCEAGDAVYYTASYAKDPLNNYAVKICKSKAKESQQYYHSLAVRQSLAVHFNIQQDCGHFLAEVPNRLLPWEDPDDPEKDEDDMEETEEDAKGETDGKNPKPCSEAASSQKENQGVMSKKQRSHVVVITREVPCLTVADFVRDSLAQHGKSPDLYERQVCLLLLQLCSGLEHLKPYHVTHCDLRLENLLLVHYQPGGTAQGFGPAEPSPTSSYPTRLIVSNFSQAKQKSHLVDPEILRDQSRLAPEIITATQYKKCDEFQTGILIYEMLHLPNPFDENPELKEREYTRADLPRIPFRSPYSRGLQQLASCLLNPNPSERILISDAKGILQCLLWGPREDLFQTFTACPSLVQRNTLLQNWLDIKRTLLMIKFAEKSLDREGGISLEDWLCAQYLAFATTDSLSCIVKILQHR
UniProt Q16816: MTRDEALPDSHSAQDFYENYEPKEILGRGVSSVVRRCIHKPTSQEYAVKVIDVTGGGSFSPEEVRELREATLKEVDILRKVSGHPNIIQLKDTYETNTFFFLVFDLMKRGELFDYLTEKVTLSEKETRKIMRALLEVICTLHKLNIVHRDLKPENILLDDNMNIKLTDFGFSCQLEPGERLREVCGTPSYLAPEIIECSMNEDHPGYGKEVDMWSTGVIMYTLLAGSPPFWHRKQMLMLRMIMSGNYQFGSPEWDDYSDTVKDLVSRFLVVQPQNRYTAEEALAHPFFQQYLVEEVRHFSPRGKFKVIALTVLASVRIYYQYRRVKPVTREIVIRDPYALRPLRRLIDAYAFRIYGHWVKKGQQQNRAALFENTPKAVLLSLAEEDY

Assays:
AKT1 = AKT1 (Homo sapiens, UniProt P31749); settings: 1 μM; Run 1, Run 2
AKT2 = AKT2 (Homo sapiens, UniProt P31751); settings: 1 μM; Run 1, Run 2
BLK = BLK (Homo sapiens, UniProt P51451); settings: 1 μM; Run 1, Run 2
c-Kit = c-Kit (Homo sapiens, UniProt P10721); settings: 1 μM; Run 1, Run 2
CDC7/DBF4 = CDC7/DBF4 (Homo sapiens, UniProt O00311); settings: 1 μM; Run 1, Run 2
CDK18/cyclin Y (PCTK3) = CDK18/cyclin Y (PCTK3) (Homo sapiens, UniProt Q07002); settings: 1 μM; Run 1, Run 2
DDR2 = DDR2 (Homo sapiens, UniProt Q16832); settings: 1 μM; Run 1, Run 2
IR = IR (Homo sapiens, UniProt P06213); settings: 1 μM; Run 1, Run 2
MAPKAPK5/PRAK = MAPKAPK5/PRAK (Homo sapiens, UniProt Q8IW41); settings: 1 μM; Run 1, Run 2
MLCK2/MYLK2 = MLCK2/MYLK2 (Homo sapiens, UniProt Q9H1R3); settings: 1 μM; Run 1, Run 2
MSK1/RPS6KA5 = MSK1/RPS6KA5 (Homo sapiens, UniProt O75582); settings: 1 μM; Run 1, Run 2
MST3/STK24 = MST3/STK24 (Homo sapiens, UniProt Q9Y6E0); settings: 1 μM; Run 1, Run 2
NEK3 = NEK3 (Homo sapiens, UniProt P51956); settings: 1 μM; Run 1, Run 2
PASK [1] = molecular target: T1, PASK (Homo sapiens, UniProt Q96RG2); settings: 1 μM; Run 1, Run 2
RON/MST1R = RON/MST1R (Homo sapiens, UniProt Q04912); settings: 1 μM; Run 1, Run 2
SNARK/NUAK2 = SNARK/NUAK2 (Homo sapiens, UniProt Q9H093); settings: 1 μM; Run 1, Run 2
SNRK = SNRK (Homo sapiens, UniProt Q9NRH2); settings: 1 μM; Run 1, Run 2
SSTK/TSSK6 = SSTK/TSSK6 (Homo sapiens, UniProt Q9BXA6); settings: 1 μM; Run 1, Run 2
TLK2 = TLK2 (Homo sapiens, UniProt Q86UE8); settings: 1 μM; Run 1, Run 2
CAMK1g = CAMK1g (Homo sapiens, UniProt Q96NX5); experiment: biochemical; settings: read-out: % enzyme activity, 1 μM; Run 1, Run 2
CDK16/cyclin Y (PCTAIRE) = CDK16/cyclin Y (PCTAIRE) (Homo sapiens, UniProt Q00536); experiment: biochemical; settings: read-out: % enzyme activity, 1 μM; Run 1, Run 2
CDK2/cyclin A = CDK2/cyclin A (Homo sapiens, UniProt P24941); experiment: biochemical; settings: read-out: % enzyme activity, 1 μM; Run 1, Run 2
EPHA5 = EPHA5 (Homo sapiens, UniProt P54756); experiment: biochemical; settings: read-out: % enzyme activity, 1 μM; Run 1, Run 2
ERBB2/HER2 = ERBB2/HER2 (Homo sapiens, UniProt P04626); experiment: biochemical; settings: read-out: % enzyme activity, 1 μM; Run 1, Run 2
FER = FER (Homo sapiens, UniProt P16591); experiment: biochemical; settings: read-out: % enzyme activity, 1 μM; Run 1, Run 2
FLT4/VEGFR3 = FLT4/VEGFR3 (Homo sapiens, UniProt P35916); experiment: biochemical; settings: read-out: % enzyme activity, 1 μM; Run 1, Run 2
GRK4 = GRK4 (Homo sapiens, UniProt P32298); experiment: biochemical; settings: read-out: % enzyme activity, 1 μM; Run 1, Run 2
GRK7 = GRK7 (Homo sapiens, UniProt Q8WTQ7); experiment: biochemical; settings: read-out: % enzyme activity, 1 μM; Run 1, Run 2
GSK3a = GSK3a (Homo sapiens, UniProt P49840); experiment: biochemical; settings: read-out: % enzyme activity, 1 μM; Run 1, Run 2
IGF1R = IGF1R (Homo sapiens, UniProt P08069); experiment: biochemical; settings: read-out: % enzyme activity, 1 μM; Run 1, Run 2
KSR2 = KSR2 (Homo sapiens, UniProt Q6VAB6); experiment: biochemical; settings: read-out: % enzyme activity, 1 μM; Run 1, Run 2
LATS2 = LATS2 (Homo sapiens, UniProt Q9NRM7); experiment: biochemical; settings: read-out: % enzyme activity, 1 μM; Run 1, Run 2
MEK3 = MEK3 (Homo sapiens, UniProt P46734); experiment: biochemical; settings: read-out: % enzyme activity, 1 μM; Run 1, Run 2
MLK3/MAP3K11 = MLK3/MAP3K11 (Homo sapiens, UniProt Q16584); experiment: biochemical; settings: read-out: % enzyme activity, 1 μM; Run 1, Run 2
MST4 = MST4 (Homo sapiens, UniProt Q9P289); experiment: biochemical; settings: read-out: % enzyme activity, 1 μM; Run 1, Run 2
NEK1 = NEK1 (Homo sapiens, UniProt Q96PY6); experiment: biochemical; settings: read-out: % enzyme activity, 1 μM; Run 1, Run 2
NIM1 = NIM1 (Homo sapiens, UniProt Q8IY84); experiment: biochemical; settings: read-out: % enzyme activity, 1 μM; Run 1, Run 2
PASK [2] = molecular target: T1, PASK; experiment: biochemical; settings: read-out: % enzyme activity, 1 μM; Run 1, Run 2
PEAK1 = PEAK1 (Homo sapiens, UniProt Q9H792); experiment: biochemical; settings: read-out: % enzyme activity, 1 μM; Run 1, Run 2
PHKg1 = PHKg1 (Homo sapiens, UniProt Q16816); experiment: biochemical; settings: read-out: % enzyme activity, 1 μM; Run 1, Run 2
PKCb1 = PKCb1 (Homo sapiens, UniProt P05771); experiment: biochemical; settings: read-out: % enzyme activity, 1 μM; Run 1, Run 2
PLK3 = PLK3 (Homo sapiens, UniProt Q9H4B4); experiment: biochemical; settings: read-out: % enzyme activity, 1 μM; Run 1, Run 2
PRKX = PRKX (Homo sapiens, UniProt P51817); experiment: biochemical; settings: read-out: % enzyme activity, 1 μM; Run 1, Run 2

## COc1cc(-c2cncc(-c3ccc(N4CCN(C(C)C)CC4)cc3)c2C)cc(F)c1C(N)=O [Compound 26b, 2-Fluoro-4-(5-(4-(4-isopropylpiperazin-1-yl)phenyl)-4-methylpyridin-3-yl)-6-methoxybenzamide]
AKT1
  % enzyme activity: 99.01%
AKT2
  % enzyme activity: 93.58%
BLK
  % enzyme activity: 100.60%
c-Kit
  % enzyme activity: 76.90%
CDC7/DBF4
  % enzyme activity: 94.08%
CDK18/cyclin Y (PCTK3)
  % enzyme activity: 100.66%
DDR2
  % enzyme activity: 91.94%
IR
  % enzyme activity: 100.67%
MAPKAPK5/PRAK
  % enzyme activity: 95.81%
MLCK2/MYLK2
  % enzyme activity: 81.15%
MSK1/RPS6KA5
  % enzyme activity: 96.47%
MST3/STK24
  % enzyme activity: 107.63%
NEK3
  % enzyme activity: 95.23%
PASK [1]
  % enzyme activity: 89.01%
RON/MST1R
  % enzyme activity: 108.77%
SNARK/NUAK2
  % enzyme activity: 93.54%
SNRK
  % enzyme activity: 107.97%
SSTK/TSSK6
  % enzyme activity: 107.83%
TLK2
  % enzyme activity: 94.99%
CAMK1g
  remaining activity at 1 µM: 99%
CDK16/cyclin Y (PCTAIRE)
  remaining activity at 1 µM: 91.3%
CDK2/cyclin A
  remaining activity at 1 µM: 92.3%
EPHA5
  remaining activity at 1 µM: 94.7%
ERBB2/HER2
  remaining activity at 1 µM: 87.2%
FER
  remaining activity at 1 µM: 83.9%
FLT4/VEGFR3
  remaining activity at 1 µM: 96.8%
GRK4
  remaining activity at 1 µM: 91.8%
GRK7
  remaining activity at 1 µM: 101%
GSK3a
  remaining activity at 1 µM: 103%
IGF1R
  remaining activity at 1 µM: 101%
KSR2
  remaining activity at 1 µM: 97.2%
LATS2
  remaining activity at 1 µM: 110%
MEK3
  remaining activity at 1 µM: 105%
MLK3/MAP3K11
  remaining activity at 1 µM: 106%
MST4
  remaining activity at 1 µM: 90.7%
NEK1
  remaining activity at 1 µM: 100%
NIM1
  remaining activity at 1 µM: 94.5%
PASK [2]
  remaining activity at 1 µM: 90.7%
PEAK1
  remaining activity at 1 µM: 112%
PHKg1
  remaining activity at 1 µM: 96.7%
PKCb1
  remaining activity at 1 µM: 87.7%
PLK3
  remaining activity at 1 µM: 96%
PRKX
  remaining activity at 1 µM: 97%
